Measured values as given in paper PMC2994877, “A Full Pharmacological Analysis of the Three Turkey β-Adrenoceptors and Comparison with the Human β-Adrenoceptors” (PLoS ONE, 2010).

By UniProt entry, the sequences of proteins in these tests, tags left out.
UniProt A0A803YLI8, entry or part of it: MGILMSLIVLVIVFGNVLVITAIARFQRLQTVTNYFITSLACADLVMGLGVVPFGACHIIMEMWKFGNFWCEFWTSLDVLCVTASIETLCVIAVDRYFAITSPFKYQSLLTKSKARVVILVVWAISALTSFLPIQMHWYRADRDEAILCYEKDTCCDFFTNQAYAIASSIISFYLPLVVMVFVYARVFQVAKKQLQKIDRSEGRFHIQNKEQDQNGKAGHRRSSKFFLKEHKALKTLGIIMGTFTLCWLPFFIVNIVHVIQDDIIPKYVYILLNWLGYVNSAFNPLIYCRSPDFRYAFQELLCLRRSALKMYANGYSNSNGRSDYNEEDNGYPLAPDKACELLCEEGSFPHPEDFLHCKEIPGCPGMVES

Molecular target: turkey β3C-adrenoceptor (tβ3C) (Meleagris gallopavo, UniProt A0A803YLI8)
Assay: CRE-SPAP production, CHO tβ3C cells
Assay type: cell-based
Conditions: read-out: % isop max

## COc1ccc(CC(C)NCC(O)c2ccc(O)c(NC=O)c2)cc1 (stereo not shown) [Formoterol]
  Emax: 104 ± 3%
